# In all, about 330,000 compounds went through this assay and about 7,700 (2.3%) were called active. The shares of active, inactive and inconclusive entries below differ from those in the screen. Calls come from the whole dose curve; as a rule, active = well fitted inhibition curve with a large enough effect; inconclusive = small, poorly fitted or top-dose-only effect, or effect the other way; inactive = flat fitted curve, though single readings scatter. Where the call is inconclusive, the potency comes from a doubtful curve fit.
# Experiment: qHTS screen for small molecules that inhibit ELG1-dependent DNA repair in human embryonic kidney (HEK293T) cells expressing luciferase-tagged ELG1; note: nearly all actives have a fitted effect of over 55% in size
# Conditions: HEK293T ELG1-luciferase reporter, luminescence, 16 h, DNA damage induced by 5-fluorouridine; activity change, negative = inhibition: at 46.1 µM (top of the series)
# In short: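 Quantitative HTS, concentration-response format. 2,000 cells/well co-treated with 5-fluorouridine and compound, 16 hr in 5% CO2 at 37 °C; ONE-Glo luminescence read after 30 min.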
# % is set by controls: 0 for no effect and ±100 for the full control effect; potency is the fitted concentration of half-maximal effect.
Structure (SMILES),Potency,"activity change, negative = inhibition"
O=C(Nc1cccc(S(=O)(=O)Nc2ccccc2F)c1)c1ccc2ccccc2n1,"inconclusive: 23.1 µM [inhibitor, single point]",–
COc1ccc(CN2CN(S(=O)(=O)c3ccccc3)c3nc4ccccc4nc32)cc1,"inconclusive: 18.3 µM [activator, single point]",–
CCOC(=O)C1CCCN(C(=O)CCC(=O)Nc2ccc3nc(N4CCOCC4)cc(C)c3c2)C1 (centres undefined),"inconclusive: 2.91 µM [activator, full curve]",–
Cc1nc2nc(-c3ccccc3)cc(=O)n2[nH]1,"inconclusive: 23.1 µM [activator, single point]",–
N#Cc1ccc(C2=CC(=O)C[C@H](c3ccc(F)cc3)C2)cc1,"inconclusive: 14.6 µM [inhibitor, partial curve, poor fit]",–
CN(CC(=O)Nc1ccccc1Cl)CC(=O)Nc1cccc2ccccc12,"inconclusive: 29.1 µM [inhibitor, single point]",–
Cc1ccc(OCC(=O)N2N=C(c3ccncc3)CC2(O)C(F)(F)F)cc1C (centres undefined),–,inactive: -30.2%
Cc1cc(C)cc(C(=O)NCC(=O)OCC(=O)Nc2cccnc2Cl)c1,–,inactive: 12.3%
CCOC(=O)c1ccc(NC(=O)c2nc[nH]c2C(=O)N2CCc3ccccc3C2)cc1,"inconclusive: 18.3 µM [inhibitor, single point]",–
CC(=O)Nc1nc2cc3c(cc2s1)OCCO3,"inconclusive: 2.31 µM [activator, full curve]",–
CN(C)c1ccc(C2CC(c3cccc(NS(C)(=O)=O)c3)=NN2C(=O)c2ccccc2)cc1 (centres undefined),"inconclusive: 29.1 µM [inhibitor, single point]",–
CC(C)(C)c1ccc(C(=O)N/N=C/c2cccc(Cl)c2)cc1,"inconclusive: 3.26 µM [activator, full curve]",–
Cc1ccc(Cc2nc3ccccc3[nH]2)cc1,–,inactive: -7.36%
O=S(=O)(N1CCOCC1)n1c(Cc2ccccc2)nc2ccccc21,"inconclusive: 10.3 µM [inhibitor, partial curve, poor fit]",–
COc1cccc(NC(=O)COc2cccc3c2CCNC3=O)c1,"inconclusive: 25.9 µM [activator, single point]",–
CCOC(=O)c1cc(-c2ccc(OC)cc2)nc2c1c(C)nn2CCC(N)=S,active: 11.6 µM,–
Cc1cc(C)c(OCC(=O)Nc2ccccc2N2CCOCC2)c(C)c1,active: 0.82 µM,–
Cc1sc2nc(SCc3nc4ccccc4[nH]3)n(Cc3ccco3)c(=O)c2c1C,"inconclusive: 20.6 µM [inhibitor, partial curve]",–
COc1cc(/C=C2\SC(=S)N(N3CCOCC3)C2=O)ccc1O,"inconclusive: 16.4 µM [activator, partial curve, poor fit]",–
CCOC(=O)Cc1cc(-c2ccc(O)cc2)nc2ccc3ccccc3c12,–,inactive: -0.405%
COC(=O)C1CCN(C(=O)COC(=O)c2ccc(N3CCCC3=O)cc2)CC1,"inconclusive: 25.9 µM [activator, partial curve, poor fit]",–
O=C(Nc1cccc(-c2nc3cccnc3s2)c1)c1cccnc1Cl,"inconclusive: 18.3 µM [inhibitor, single point]",–

# Single entries from the entries so far.
# In Potency, `CCOC(=O)C1CCCN(C(=O)CCC(=O)Nc2ccc3nc(N4CCOCC4)cc(C)c3c2)C1` (centres undefined) shows inconclusive: 2.91 µM [activator, full curve]
# In Potency, `N#Cc1ccc(C2=CC(=O)C[C@H](c3ccc(F)cc3)C2)cc1` shows inconclusive: 14.6 µM [inhibitor, partial curve, poor fit]

# Additional compounds

Structure (SMILES),Potency,"activity change, negative = inhibition"
COc1ccc(C)c2sc(=NC(=O)c3cccc(N4C(=O)CCC4=O)c3)n(C)c12,"inconclusive: 5.8 µM [activator, full curve]",–
COc1cc2c(cc1OC)CN(C(C)C(=O)Nc1ccc(NC(C)=O)cc1)CC2 (centres undefined),–,inconclusive: 15.1% [activator]
O=C(N/N=C/c1cccc([N+](=O)[O-])c1)c1cc(-c2ccccc2)nc2ccccc12,–,inactive: -24.9%
CC1Cc2ccccc2N1C(=O)Cn1cnc2ccccc21 (centres undefined),"inconclusive: 14.6 µM [inhibitor, partial curve]",–
Cc1cc(N2CC(C)OC(C)C2)nc2ccccc12 (centres undefined),–,inactive: 8.39%
O=C(CSc1ccccc1)N1CCN(C(=O)c2ccco2)CC1,–,inactive: 1.28%
O=C(Nc1ccc(F)cc1)Nc1nnc(Cc2ccccc2F)s1,–,inactive: -8.6%
O=C(Nc1cccnc1)c1ccc(COc2ccccc2Br)o1,"inconclusive: 28.2 µM [inhibitor, single point]",–
Cc1c([N+](=O)[O-])cc(C(=O)Nc2ccc(NC(=O)c3ccco3)cc2)cc1[N+](=O)[O-],–,inactive: 6.2%
CC(=O)N(C1=C(N2CCOCC2)C(=O)c2ccccc2C1=O)c1ccc(C(=O)O)cc1,active: 23.1 µM,–
COc1cc(OC)cc(C(=O)N[C@H](C(=O)OCC(=O)Nc2cccnc2Cl)C(C)C)c1,"inconclusive: 20.6 µM [inhibitor, single point]",–
O=C(Nc1cccnc1)c1cc2cc(Br)ccc2o1,"inconclusive: 0.708 µM [activator, full curve, poor fit]",–
COc1ccc2[nH]c(C)c(CCN(Cc3cccs3)C(=S)Nc3ccccc3)c2c1,"inconclusive: 16.4 µM [inhibitor, single point]",–
NC(=O)C1(N2CCCCC2)CCN(c2nc(-c3ccccc3)cs2)CC1,"inconclusive: 23.1 µM [inhibitor, single point]",–
O=C(NCCc1ccccc1)Oc1ccc(Cl)cc1,"inconclusive: 18.3 µM [activator, partial curve]",–
CCOc1ccccc1CNC(=O)c1c([N+](=O)[O-])c(C)nn1C,"inconclusive: 11.6 µM [inhibitor, partial curve, poor fit]",–
NC(=O)C1CN(C(=O)c2cccc(S(=O)(=O)N3CCc4ccccc43)c2)c2ccccc2O1 (centres undefined),"inconclusive: 29.1 µM [inhibitor, single point]",–
COc1ccc(NC(=O)c2cc(C)on2)cc1OC,–,inactive: 27.9%
S=C(NCC1CCCO1)N1CCN(c2ccccc2)CC1 (centres undefined),"inconclusive: 32.6 µM [inhibitor, single point]",–
CC(C)NC(=O)N1CCCN(c2nc3ccc(Cl)cc3s2)CC1,"inconclusive: 2.06 µM [inhibitor, full curve]",–
COc1ccc(OC)c(S(=O)(=O)N2CCC3(CC2)CC(=O)c2ccccc2O3)c1,–,inactive: -9.41%
O=C(NCC(=O)N1CC=C(c2ccccc2)CC1)c1ccco1,"inconclusive: 20.6 µM [activator, single point]",–

# Reference: PubChem BioAssay AID504467 (National Center for Advancing Translational Sciences (NCATS), 2011)
